Laboratory results: PMC11009110

By UniProt entry, the sequences of proteins in these tests, tags left out.
UniProt O60925: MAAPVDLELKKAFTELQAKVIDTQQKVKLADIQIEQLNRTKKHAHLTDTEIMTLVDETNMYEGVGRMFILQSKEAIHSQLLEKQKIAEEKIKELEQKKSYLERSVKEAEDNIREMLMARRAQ
UniProt Q99471: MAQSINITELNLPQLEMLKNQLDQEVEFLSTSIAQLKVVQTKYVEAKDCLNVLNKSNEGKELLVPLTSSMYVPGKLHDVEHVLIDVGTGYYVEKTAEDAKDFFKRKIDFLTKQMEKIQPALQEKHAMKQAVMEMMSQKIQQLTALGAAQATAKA
UniProt Q9NQP4: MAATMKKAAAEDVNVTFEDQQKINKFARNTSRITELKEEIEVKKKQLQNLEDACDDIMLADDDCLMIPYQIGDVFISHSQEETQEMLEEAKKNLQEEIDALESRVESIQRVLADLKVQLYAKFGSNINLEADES
UniProt P61758: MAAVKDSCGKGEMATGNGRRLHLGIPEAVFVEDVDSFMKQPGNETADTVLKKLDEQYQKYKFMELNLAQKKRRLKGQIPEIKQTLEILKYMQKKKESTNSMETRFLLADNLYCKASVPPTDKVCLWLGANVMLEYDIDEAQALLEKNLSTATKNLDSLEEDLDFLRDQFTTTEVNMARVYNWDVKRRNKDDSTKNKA
UniProt P62879: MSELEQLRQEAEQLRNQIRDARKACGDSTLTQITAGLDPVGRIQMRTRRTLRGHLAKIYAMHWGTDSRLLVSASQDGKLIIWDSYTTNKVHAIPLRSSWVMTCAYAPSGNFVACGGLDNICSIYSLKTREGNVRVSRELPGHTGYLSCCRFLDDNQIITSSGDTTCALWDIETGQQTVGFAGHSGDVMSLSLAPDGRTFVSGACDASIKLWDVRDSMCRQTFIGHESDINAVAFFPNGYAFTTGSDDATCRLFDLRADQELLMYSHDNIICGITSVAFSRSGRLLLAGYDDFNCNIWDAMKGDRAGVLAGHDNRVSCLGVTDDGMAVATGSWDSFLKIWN

How the values were obtained:
PFDN2 (human) [1] = molecular target: PFDN2 (human) (UniProt Q9UHV9); experiment: affinity purification with mass spectrometry + native gel or EMSA; DIP-MS: Strep-Tactin Sepharose purification of the SH-tagged bait (PFDN2 or UXT) from HEK293 lysate (HNN-lysis buffer: 50 mM HEPES, 100 mM NaCl, 50 mM NaF, pH 7.4, 0.5% NP40, benzonase), elution with 2 mM biotin, blue-native PAGE 3-12% Bis-Tris at 4 °C, 1 mm gel slices, DIA-MS; coelution scored with PPIprophet; triplicates for each bait
UXT (human) = UXT (human) (UniProt Q9UBK9); experiment: as above
PFDN1 (human) = PFDN1 (human) (UniProt O60925); experiment: affinity purification with mass spectrometry; reciprocal AP-MS of twin-Strep and HA (SH)-tagged baits (11 core subunits of PFD and PFDL containing PAQosome complexes) from cell lines, triplicates, DDA; SAINTExpress scoring against GFP controls
PFDN5 (human) = PFDN5 (human) (UniProt Q99471); experiment: as above
PFDN2 (human) [2] = molecular target: PFDN2 (human) (UniProt Q9UHV9); experiment: as above
PFDN4 (human) = PFDN4 (human) (UniProt Q9NQP4); experiment: as above
VBP1 (human) = VBP1 (human) (UniProt P61758); experiment: as above

Row | Substance | binding (PFDN2 (human) [1]) | binding (UXT (human)) | further results
1 | ASDURF (from UniProt L0R819 1-96) | binds | binds | –
2 | GNB2 (from UniProt P62879 1-340) | binds | – | binding (PFDN1 (human)): binds; binding (PFDN5 (human)): binds; binding (PFDN2 (human) [2]): binds
3 | PDRG1 (from UniProt Q9NUG6 1-133) | binds | binds | binding (PFDN4 (human)): no binding; binding (PFDN1 (human)): binds; binding (PFDN5 (human)): binds; binding (VBP1 (human)): binds
4 | PFDN1 (from UniProt O60925 1-122) | binds | no binding | –
5 | PFDN2 (from UniProt Q9UHV9 1-154) | – | binds | –
6 | PFDN4 (from UniProt Q9NQP4 1-134) | binds | no binding | –
7 | PFDN5 (from UniProt Q99471 1-154) | binds | – | –
8 | PFDN6 (from UniProt O15212 1-129) | binds | binds | –
9 | RUVBL1 (from UniProt Q9Y265 1-456) | binds | binds | –
10 | VBP1 (from UniProt P61758 1-197) | – | no binding | –
11 | WDR92 (from UniProt Q96MX6 1-357) | binds | binds | –

Results are given in words; binding and its absence hold for the method and conditions named. In cells and extracts the contact can be indirect. Here binding means that the protein was enriched with, or labelled near, the bait; the list need not be complete. For some of these results: A no says only that the protein was not detected with the bait.
